According to PubChem BioAssay AID2685 (National Center for Advancing Translational Sciences (NCATS), 2010):
In all, about 320,000 compounds went through this assay and about 2,100 (0.66%) were called active. Inconclusive results, whose numbers are uncertain, are shown with a selection of clear calls. The call rests on the fitted dose curve; in most records, active means well fitted inhibition curve with a large enough effect in the signal ratio, with a control signal flat (not every such curve was filed as active); inconclusive means small, poorly fitted or top-dose-only effect, or effect the other way, or a change in a side signal; inactive means flat fitted curve, though single readings scatter; the % refers to the signal ratio. A potency beside an inconclusive call is a rough fit, not a confirmed value.

Assay: qHTS Assay for Lipid Storage Modulators in Drosophila S3 Cells
Details: BODIPY lipid droplet fluorescence, 18-24 h, cells fed with added oleic acid; lipid storage change, negative = inhibition: at 46.1 µM (top of the series) unless noted
Method in brief: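 Drosophila S3 cells loaded with oleic acid (400 uM, as added) and compounds at several concentrations; lipid droplets imaged by 488-nm laser-scanning cytometry, 500–530 nm intensity and object ratio to cell channel. Percent activity normalized to 20 uM Triacsin C.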
On the % scale 0 is the no-effect control and ±100 the full control effect; potency means the concentration at half of the fitted maximal effect.

SMILES | Potency | lipid storage change, negative = inhibition
CCOC(=O)c1sc2nccc(N(C)C)c2c1N=CNOCc1ccccc1 | inconclusive: 5.17 µM [activator, partial curve] | –
Cc1ccc(C)c(-n2nnnc2SCC(=O)Nc2cccc(-c3nnc4n3CCCCC4)c2)c1 | – | inconclusive: 11.8%
COc1cc([N+](=O)[O-])ccc1NC(=O)NNC(=O)c1sccc1C | – | inconclusive: 90.7%
O=C(CCN1C(=O)/C(=C/c2cccs2)SC1=S)NNC(=O)c1cccc(O)c1 | – | inconclusive: -98.1%
OC(COc1ccccc1)CN1CCN(CC(O)COc2ccccc2)CC1 (stereo unspecified) | – | inconclusive: 35.7%
COCCn1c(SCC(=O)Nc2cc(C)cc(C)c2)nc2ccccc2c1=O | active: 2.06 µM | –
COCc1c(C(N)=O)nnn1-c1nonc1N | inconclusive: 0.291 µM [falling, full curve, poor fit] | –
COc1cccc(CC(=O)OCC(=O)Nc2c(C)nn(-c3ccccc3)c2C)c1 | – | inconclusive
Cc1ccsc1/C=N/NC(=O)CN1CCN(Cc2ccccc2)CC1 | – | inconclusive: 0.364%
CCOC(=O)C1CCCN(S(=O)(=O)c2ccc3c(c2)C(C)(C)C(=O)N3C)C1 (stereo unspecified) | – | inconclusive: 11.7%
O=C(O)CCn1c(=S)oc2ccccc21 | – | inactive: -6.79%
COc1ccc(N(C(=O)Cn2nnc(-c3ccc(F)cc3)n2)C(C)C(=O)NC2CCCC2)cc1 (stereo unspecified) | active: 1.3 µM | –
COc1cc(CNC2CCCCCCC2)cc(Cl)c1OCC(N)=O | – | inactive: -14.6%
NS(=O)(=O)c1ccc(CCNC(=O)c2ccc(NS(=O)(=O)c3ccc4[nH]c(=O)[nH]c4c3)cc2)cc1 | – | inconclusive: -8.48%
CCC(Oc1ccccc1)C(=O)NC1CCCCCC1 (stereo unspecified) | inconclusive: 29.1 µM [activator, single point] | –
CC(=O)c1ccc(Nc2cnn(C34CC5CC(CC(CC(=O)O)(C5)C3)C4)c(=O)c2Cl)cc1 | inconclusive: 6.51 µM [cytotoxic, single point] | –
Cc1cc(C(=O)NCc2ccccc2F)c2ccccc2n1 | – | inconclusive: -23.3%
CN1CCN(Cc2cn[nH]c2-c2ccc(F)cc2F)[C@@H](c2ccccc2)C1 | – | inconclusive: -18%
Cc1ccccc1OC(=O)c1cccnc1 | – | inconclusive: 18.5%
Cc1cc(=O)oc2cc(OC(=O)c3ccccc3)ccc12 | inconclusive: 25.9 µM [falling, partial curve, poor fit] | –
Nc1nc(Nc2ccccc2)sc1C(=O)c1ccccc1 | inconclusive: 3.26 µM [activator, full curve, poor fit] | –
O=C(NCc1ccccn1)c1ccc2c(=O)n3nc(Nc4ccccc4)sc3nc2c1 | active: 4.11 µM | –
CCOC(=O)C1/C(=N\O)CC(C)(O)C(C(=O)OCC)C1c1ccc(OC)c(OC)c1 (stereo unspecified) | – | inconclusive: -4.78%
CC(C)c1ccc(NC(=O)CN2CCN(c3ccccn3)CC2)cc1 | inconclusive: 1.84 µM [activator, partial curve, poor fit] | –
O=C1CC(N2CCCCCC2)C(=O)N1c1ccc(F)cc1 (stereo unspecified) | – | inconclusive: -26.9% [at 9.22 µM]
O=C(Nc1ccc(Cl)cc1)C1CCCN(c2cnccn2)C1 (stereo unspecified) | inconclusive: 29.1 µM [activator, single point] | –

As entered above:
Under Potency, `CC(C)c1ccc(NC(=O)CN2CCN(c3ccccn3)CC2)cc1` shows inconclusive: 1.84 µM [activator, partial curve, poor fit]
Under lipid storage change, negative = inhibition, `COc1cc(CNC2CCCCCCC2)cc(Cl)c1OCC(N)=O` shows inactive: -14.6%

(more compounds)

SMILES | Potency | lipid storage change, negative = inhibition
CCOc1ccc(N(CC(=O)NCC2CCCO2)S(=O)(=O)c2ccc(OC)c(OC)c2)cc1 (stereo unspecified) | – | inactive: 4.7%
CCc1ccc(/C=N/NC(=O)c2cc(C)on2)s1 | – | inconclusive: 33.3%
COc1ccc(NC(=O)CCC(=O)NCCO)cc1 | – | inconclusive: -25.6%
COc1ccc(CNC(=O)CC(C)CC2=NS(=O)(=O)c3ccccc3N2)cc1 (stereo unspecified) | – | inconclusive: 19.4%
O=S(=O)(NC1CCCCC1Oc1ccccc1)c1ccc(Cl)cc1 (stereo unspecified) | – | inconclusive: -8.99%
NC(=O)c1ccc(NC(=O)COC(=O)CCCOc2ccccc2)cc1 | – | inconclusive
CCOc1ccc(Cl)cc1S(=O)(=O)N1CCC(C(=O)NCc2ccccn2)CC1 | inconclusive: 6.51 µM [activator, single point] | –
O=C(CS(=O)CC(=O)N(CC(=O)NC1CCCC1)C1CCCC1)Nc1ccc(F)cc1 (stereo unspecified) | – | inconclusive: -8.57%
Cc1ccc(-c2noc(CN(C)C(=O)Nc3ccc(F)cc3)n2)cc1 | inconclusive: 29.1 µM [falling, single point] | –
C[C@@]12C(=O)Nc3cc(Cl)ccc3C(=O)N1[C@H]1c3cc(Br)ccc3OC[C@@H]1[C@@H]2c1ccccc1 | – | inconclusive: 7.48%
COc1ccccc1CNC(=O)c1cccc(S(=O)(=O)N(C)c2ccccc2)c1 | – | inconclusive: -31.7%
COc1ccc(-c2nc3c(n2O)CCc2c-3no[n+]2[O-])cc1 | – | inconclusive: -14.5%
CN(C(=O)CSc1nnc(COc2ccccc2F)n1N)C1CCS(=O)(=O)C1 (stereo unspecified) | – | inconclusive
COc1ccc(CCN2CC(C(=O)NCC(=O)Nc3ccc(F)c(F)c3)CC2=O)cc1OC (stereo unspecified) | – | inconclusive: -1.13%
CCOc1cc(-c2noc(CCC(=O)N3CCOCC3)n2)ccc1OC | – | inconclusive: -0.0376%
Cc1cc2ncc(S(=O)(=O)c3ccccc3)c(N)n2n1 | – | inconclusive: -8.24%
O=C(COc1ccc2ccccc2c1)Nc1ccc(Br)cc1C(=O)O | – | inconclusive: 17.7%
O=C(NCCOc1ccccc1)c1ccccc1SCC(=O)N1CCCC1 | inconclusive: 2.91 µM [activator, single point] | –
O=C(NCCCCNC(=O)c1cccnc1Cl)c1cccnc1Cl | inconclusive: 1.84 µM [falling, partial curve, poor fit] | –
O=C(O)CC/C(=N\Nc1ccc([N+](=O)[O-])cc1)c1ccccc1 | inconclusive: 29.1 µM [cytotoxic, single point] | –
Cc1cc(C)nc(SCc2nnc(SCC(=O)N3CCCc4ccccc43)n2C)n1 | – | inconclusive: 14.1%
Cc1cc(C)cc(Oc2ccccc2/C=C\C(=O)O)c1 | – | inconclusive: -32.3%
CCCn1cc(S(=O)(=O)c2ccc(OC)cc2)c(=O)c2cc(OCC)ccc21 | – | inactive: -20.7%
CCOc1ccccc1N1CCN(S(=O)(=O)c2cccs2)CC1 | – | inconclusive: -2.7%
COc1ccc(-c2noc(CNC(=O)CCCN3C(=O)[C@H]4CC=CC[C@H]4C3=O)n2)cc1 | inconclusive: 29.1 µM [cytotoxic, single point] | –
O=c1c2ccccc2nnn1Cc1ccc(Br)cc1 | – | inconclusive: -15.7%

Molecules listed so far with an NH in an aromatic ring:
SMILES | Potency | lipid storage change, negative = inhibition
NS(=O)(=O)c1ccc(CCNC(=O)c2ccc(NS(=O)(=O)c3ccc4[nH]c(=O)[nH]c4c3)cc2)cc1 | – | inconclusive: -8.48%
CN1CCN(Cc2cn[nH]c2-c2ccc(F)cc2F)[C@@H](c2ccccc2)C1 | – | inconclusive: -18%

Further structures follow.

SMILES | Potency | lipid storage change, negative = inhibition
O=C(NCc1ccc(F)cc1)C(c1ccccc1)N(C(=O)c1csnn1)c1ccccc1 (stereo unspecified) | inconclusive: 23.1 µM [activator, partial curve] | –
CCOc1ccc(-c2cc(C(=O)O)c3ccccc3n2)cc1 | – | inconclusive: -43.2%
S=C(NC1CCCCC1)N1CCN(C2CCCCC2)CC1 | inconclusive: 6.51 µM [falling, single point] | –
CCOC(=O)C1CCN(S(=O)(=O)c2ccccc2)CC1 | – | inconclusive: -14%
Cc1ccccc1N=Nc1c(C)[nH]n(C(N)=S)c1=O | inconclusive: 4.61 µM [activator, full curve, poor fit] | –
CC(=Nc1ccccc1C)C1=C(O)CSC1=O | inconclusive: 0.092 µM [falling, full curve, poor fit] | –
CCN(CC(=O)NCc1cccs1)C(=O)c1cc(S(=O)(=O)NCc2ccccc2)ccc1C | – | inconclusive
CCOC(=O)CCC(NC(=O)CCCC(=O)NC(CCC(=O)OCC)C(=O)OCC)C(=O)OCC (stereo unspecified) | inconclusive: 5.8 µM [falling, partial curve, poor fit] | –
O=C(NCC1CC1)Nc1cccc(Cl)c1 | – | inconclusive: -122%
Cc1cccn2c(=O)c(C=Nc3ccccc3)c(NCCO)nc12 | inconclusive: 5.17 µM [activator, full curve] | –
Cc1cc(C(=O)NCc2cc(C(=O)O)oc2C)c(C)o1 | – | inconclusive: -59.7%
CCC1Oc2ccc(C)cc2N(CC(=O)NC2CCCCC2)C1=O (stereo unspecified) | inconclusive: 0.231 µM [activator, full curve, poor fit] | –
O=C(C1=C(c2ccccc2)C(=O)c2ccccc2C1=O)c1ccccc1 | inconclusive: 32.6 µM [cytotoxic, single point] | –
Cc1ccc(C)c(N(CC(=O)NCCc2ccccc2)C(=O)CCC(=O)Nc2ccccn2)c1 | inconclusive: 4.61 µM [falling, single point] | –
O=C(CN(c1ccc(F)cc1)S(=O)(=O)c1ccccc1)NC1CCCCCC1 | – | inconclusive: 26.1%
COc1ccc(CCn2c(C)c(C(C)=O)c3cc(OC(=O)c4ccco4)ccc32)cc1OC | inconclusive: 2.91 µM [activator, partial curve] | –
CN(CC(=O)Nc1ccc(F)cc1)C(=O)CSc1nccn1C | – | inconclusive
Cc1cccc(OCC(=O)Nc2ccccc2-c2ccccc2)c1 | – | inconclusive: 27.2%
NC(=O)c1ccc(NCC2CCCO2)c([N+](=O)[O-])c1 (stereo unspecified) | inconclusive: 0.146 µM [activator, full curve, poor fit] | –
CC(C)C[C@@H](CN(N=O)[C@@H](Cc1ccccc1)CN(C)N=O)N(CCc1ccccc1)N=O | – | inconclusive: 13.2%
NS(=O)(=O)c1ccc(CNS(=O)(=O)c2cc(C(=O)O)ccc2Cl)cc1 | inconclusive: 4.61 µM [falling, single point] | –
N#Cc1ccc(C(=O)OCCc2cc3ccccc3c(=O)o2)cc1 | inconclusive: 3.26 µM [falling, single point] | –
COc1ccc(-n2c(Cc3cccn3C)nnc2SCC(=O)Nc2cc(C)cc(C)c2)cc1 | – | inconclusive: 39.2%
O=C(Cc1ccccc1)Nc1nnc(-c2ccccc2)o1 | – | inconclusive: 6.72%
